Test results taken from patent publication US20230168255A1, “UNBLENDING OF TRANSCRIPTIONAL CONDENSATES IN HUMAN REPEAT EXPANSION DISEASE” (Max-Planck-Gesellschaft zur Förderung der Wissenschaften …, priority 2020, published 2023).
Structures can show the parent of a compound that is named as a salt. For at least one compound, name, drawing or mass did not settle the structure.

Amino acid sequences for entries named in this document (tags omitted). A change or cut given only in a name is not applied to a line headed by its entry.
UniProt P35453: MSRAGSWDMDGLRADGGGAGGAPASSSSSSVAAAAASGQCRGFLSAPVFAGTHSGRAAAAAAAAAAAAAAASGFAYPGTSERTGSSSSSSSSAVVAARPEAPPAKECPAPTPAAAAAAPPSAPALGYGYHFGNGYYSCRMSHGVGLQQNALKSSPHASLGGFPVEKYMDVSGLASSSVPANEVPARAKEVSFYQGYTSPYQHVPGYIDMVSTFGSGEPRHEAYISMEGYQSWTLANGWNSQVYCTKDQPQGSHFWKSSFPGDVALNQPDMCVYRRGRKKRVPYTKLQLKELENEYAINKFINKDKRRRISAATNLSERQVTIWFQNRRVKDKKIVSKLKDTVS

Biological target: T1, Hoxd13 +7A IDR-Med1 IDR co-condensates (Homo sapiens, UniProt P35453, DUP65-71)
T1 construct: His tag (from pET45b(+); purified on a His column); made in house; host or cells: E. coli BL21(DE3)
T1 sequence (P35453 with tags, fused parts or gaps DUP65-71): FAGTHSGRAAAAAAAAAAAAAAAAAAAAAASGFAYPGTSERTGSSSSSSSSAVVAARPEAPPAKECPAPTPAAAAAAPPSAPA
Experiment: in vitro droplet assay, compound treatment of Hoxd13 IDR-Med1 IDR co-condensates
Format: biochemical
Details: purified Hoxd13 +7A IDR-mCherry mixed with MED1 IDR-GFP; FIG. 3G-J, FIG. 8
Protocol: For image analysis, droplets were first automatically thresholded in either the mEGFP or mCherry channel using Zen Blue (Version 3.0), and then filtered by size, pixel intensity, and pixel deviation. Mean fluorescence intensities, area, and diameter of these primary regions were measured on both channels. For quantification and data visualization (FIG. 1J, 2H, 3B-E, 3H-J, 6F, 6H, 60, 6Q), raw values for diameter, mean intensity, or area were plotted as indicated in figure legends using R-Studio and the Directlabels package.
For in vitro droplet formation, recombinant mCherry or mEGFP fusion proteins were measured for concentration, and then diluted or mixed to suitable final concentrations in storage buffer. For microscopy, these solutions were further diluted 1:2 in either 20% or 10% PEG-8000 in deionized water (w/v). 10 μL of this suspension was pipetted onto chambered coverslips, and immediately imaged using a LSM880 confocal microscope equipped with a 63×1.40 oil DIC objective and AiryScan detector. All images were acquired from within the solution interface, and performed before droplets settled onto the bottom of the coverslip, as described in (Sabari et al., 2018). […]

Structure (SMILES): O=C1c2c(O)ccc(O)c2C(=O)c2c(NCCNCCO)ccc(NCCNCCO)c21 [mitoxantrone, Mitoxantrone dihydrochloride]
- reblending of co-condensates (ratio of GFP and mCherry fluorescence in HOXD13 IDR-mCherry containing droplets): failed to reblend
